Results are given in words; binding and its absence hold for the method and conditions named. Binding seen in cells or lysates may run through a third protein. Here binding means that the protein was enriched with, or labelled near, the bait; the list need not be complete. For some of these results: Tags and fused reporters may be left off the sequences shown.
Assays:
Experiment in all cases: proximity labelling; BioID2 fused to the carboxy terminus of the bait in stable doxycycline-inducible 293T lines; 50 µM biotin 16 hr; RIPA lysis, streptavidin beads, on-bead digestion, MS; hits ≥threefold over cytoplasmic BioID2 control or absent from it, p < 0.05, three of four replicates
[1] = target: FHIP2B tagged at the carboxy terminus with BioID2 and 3xFLAG (human) (UniProt Q86V87)
[2] = target: FHIP1A tagged at the carboxy terminus with BioID2 and 3xFLAG (human) (UniProt Q05DH4)
[3] = target: FHIP2A tagged at the carboxy terminus with BioID2 and 3xFLAG (human) (UniProt Q5W0V3)
[4] = target: T1, FHIP1B tagged at the carboxy terminus with BioID2 and 3xFLAG (human) (UniProt Q8N612)
T1 sequence: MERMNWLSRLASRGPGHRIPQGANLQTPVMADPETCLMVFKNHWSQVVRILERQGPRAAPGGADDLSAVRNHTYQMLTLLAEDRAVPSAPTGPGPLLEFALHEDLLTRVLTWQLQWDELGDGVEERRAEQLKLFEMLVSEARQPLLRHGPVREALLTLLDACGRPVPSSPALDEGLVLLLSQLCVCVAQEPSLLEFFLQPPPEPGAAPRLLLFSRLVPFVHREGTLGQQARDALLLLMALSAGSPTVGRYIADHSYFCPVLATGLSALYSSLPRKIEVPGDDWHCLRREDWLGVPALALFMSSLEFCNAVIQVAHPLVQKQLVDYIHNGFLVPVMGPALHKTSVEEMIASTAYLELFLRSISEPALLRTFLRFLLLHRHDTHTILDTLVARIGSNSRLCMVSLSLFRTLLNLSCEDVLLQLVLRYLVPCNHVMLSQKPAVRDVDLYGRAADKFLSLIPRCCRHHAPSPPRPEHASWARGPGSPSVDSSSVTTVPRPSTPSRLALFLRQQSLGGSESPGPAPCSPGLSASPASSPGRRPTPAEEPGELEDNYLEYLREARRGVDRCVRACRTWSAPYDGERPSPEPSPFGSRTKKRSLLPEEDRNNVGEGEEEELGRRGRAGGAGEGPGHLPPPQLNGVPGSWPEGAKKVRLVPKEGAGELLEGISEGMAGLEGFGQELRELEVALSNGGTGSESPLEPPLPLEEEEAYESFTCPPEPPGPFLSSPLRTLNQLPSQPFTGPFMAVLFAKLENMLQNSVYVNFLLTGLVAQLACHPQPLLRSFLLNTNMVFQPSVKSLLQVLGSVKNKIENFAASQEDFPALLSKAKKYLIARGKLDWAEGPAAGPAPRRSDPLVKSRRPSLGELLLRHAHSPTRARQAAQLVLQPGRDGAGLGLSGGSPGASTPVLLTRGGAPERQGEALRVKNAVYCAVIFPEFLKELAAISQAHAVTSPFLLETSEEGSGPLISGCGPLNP

Amino acid sequences for entries named in this document (tags omitted).
UniProt Q86V87: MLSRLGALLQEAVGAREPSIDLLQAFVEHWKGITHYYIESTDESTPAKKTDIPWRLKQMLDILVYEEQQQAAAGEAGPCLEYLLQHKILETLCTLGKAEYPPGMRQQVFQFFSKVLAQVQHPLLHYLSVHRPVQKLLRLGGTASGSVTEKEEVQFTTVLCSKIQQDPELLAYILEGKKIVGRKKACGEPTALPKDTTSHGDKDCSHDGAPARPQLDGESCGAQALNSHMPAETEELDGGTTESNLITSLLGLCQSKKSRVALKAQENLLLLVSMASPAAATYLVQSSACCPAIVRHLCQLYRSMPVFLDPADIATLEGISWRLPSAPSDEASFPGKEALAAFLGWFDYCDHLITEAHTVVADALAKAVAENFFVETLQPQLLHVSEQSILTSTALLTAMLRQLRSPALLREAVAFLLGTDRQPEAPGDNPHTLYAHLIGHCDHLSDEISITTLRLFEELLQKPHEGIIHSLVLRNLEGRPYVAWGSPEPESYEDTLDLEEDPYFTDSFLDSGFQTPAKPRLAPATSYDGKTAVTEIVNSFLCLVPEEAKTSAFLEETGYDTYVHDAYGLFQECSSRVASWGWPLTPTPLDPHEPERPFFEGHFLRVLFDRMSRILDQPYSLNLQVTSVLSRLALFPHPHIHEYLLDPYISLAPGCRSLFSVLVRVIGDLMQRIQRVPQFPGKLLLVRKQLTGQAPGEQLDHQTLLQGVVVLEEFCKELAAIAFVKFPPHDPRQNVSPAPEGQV

B1: FTS/AKTIP, endogenous in 293T cells (protein, UniProt Q9H8T0 1-292)
chain: MNPFWSMSTSSVRKRSEGEEKTLTGDVKTSPPRTAPKKQLPSIPKNALPITKPTSPAPAAQSTNGTHASYGPFYLEYSLLAEFTLVVKQKLPGVYVQPSYRSALMWFGVIFIRHGLYQDGVFKFTVYIPDNYPDGDCPRLVFDIPVFHPLVDPTSGELDVKRAFAKWRRNHNHIWQVLMYARRVFYKIDTASPLNPEAAVLYEKDIQLFKSKVVDSVKVCTARLFDQPKIEDPYAISFSPWNPSVHDEAREKMLTQKKPEEQHNKSVHVAGLSWVKPGSVQPFSKEEKTVAT
binding [1]: binds
binding [2]: binds
binding [3]: binds
binding [4]: binds

B2: Rab5B, endogenous in 293T cells (protein, UniProt P61020 1-215)
chain: MTSRSTARPNGQPQASKICQFKLVLLGESAVGKSSLVLRFVKGQFHEYQESTIGAAFLTQSVCLDDTTVKFEIWDTAGQERYHSLAPMYYRGAQAAIVVYDITNQETFARAKTWVKELQRQASPSIVIALAGNKADLANKRMVEYEEAQAYADDNSLLFMETSAKTAMNVNDLFLAIAKKLPKSEPQNLGGAAGRSRGVDLHEQSQQNKSQCCSN
binding [4]: binds

B3: KIAA0319L, endogenous in 293T cells (protein, UniProt Q8IZA0 1-1049)
chain: MEKRLGVKPNPASWILSGYYWQTSAKWLRSLYLFYTCFCFSVLWLSTDASESRCQQGKTQFGVGLRSGGENHLWLLEGTPSLQSCWAACCQDSACHVFWWLEGMCIQADCSRPQSCRAFRTHSSNSMLVFLKKFQTADDLGFLPEDDVPHLLGLGWNWASWRQSPPRAALRPAVSSSDQQSLIRKLQKRGSPSDVVTPIVTQHSKVNDSNELGGLTTSGSAEVHKAITISSPLTTDLTAELSGGPKNVSVQPEISEGLATTPSTQQVKSSEKTQIAVPQPVAPSYSYATPTPQASFQSTSAPYPVIKELVVSAGESVQITLPKNEVQLNAYVLQEPPKGETYTYDWQLITHPRDYSGEMEGKHSQILKLSKLTPGLYEFKVIVEGQNAHGEGYVNVTVKPEPRKNRPPIAIVSPQFQEISLPTTSTVIDGSQSTDDDKIVQYHWEELKGPLREEKISEDTAILKLSKLVPGNYTFSLTVVDSDGATNSTTANLTVNKAVDYPPVANAGPNQVITLPQNSITLFGNQSTDDHGITSYEWSLSPSSKGKVVEMQGVRTPTLQLSAMQEGDYTYQLTVTDTIGQQATAQVTVIVQPENNKPPQADAGPDKELTLPVDSTTLDGSKSSDDQKIISYLWEKTQGPDGVQLENANSSVATVTGLQVGTYVFTLTVKDERNLQSQSSVNVIVKEEINKPPIAKITGNVVITLPTSTAELDGSKSSDDKGIVSYLWTRDEGSPAAGEVLNHSDHHPILFLSNLVEGTYTFHLKVTDAKGESDTDRTTVEVKPDPRKNNLVEIILDINVSQLTERLKGMFIRQIGVLLGVLDSDIIVQKIQPYTEQSTKMVFFVQNEPPHQIFKGHEVAAMLKSELRKQKADFLIFRALEVNTVTCQLNCSDHGHCDSFTKRCICDPFWMENFIKVQLRDGDSNCEWSVLYVIIATFVIVVALGILSWTVICCCKRQKGKPKRKSKYKILDATDQESLELKPTSRAGIKQKGLLLSSSLMHSESELDSDDAIFTWPDREKGKLLHGQNGSVPNGQTPLKARSPREEIL
binding [1]: binds
binding [3]: binds

B4: carboxypeptidase D, endogenous in 293T cells (protein, UniProt O75976 32-1380)
chain: AHIKKAEATTTTTSAGAEAAEGQFDRYYHEEELESALREAAAAGLPGLARLFSIGRSVEGRPLWVLRLTAGLGSLIPEGDAGPDAAGPDAAGPLLPGRPQVKLVGNMHGDETVSRQVLIYLARELAAGYRRGDPRLVRLLNTTDVYLLPSLNPDGFERAREGDCGFGDGGPSGASGRDNSRGRDLNRSFPDQFSTGEPPALDEVPEVRALIEWIRRNKFVLSGNLHGGSVVASYPFDDSPEHKATGIYSKTSDDEVFKYLAKAYASNHPIMKTGEPHCPGDEDETFKDGITNGAHWYDVEGGMQDYNYVWANCFEITLELSCCKYPPASQLRQEWENNRESLITLIEKVHIGVKGFVKDSITGSGLENATISVAGINHNITTGRFGDFYRLLVPGTYNLTVVLTGYMPLTVTNVVVKEGPATEVDFSLRPTVTSVIPDTTEAVSTASTVAIPNILSGTSSSYQPIQPKDFHHHHFPDMEIFLRRFANEYPNITRLYSLGKSVESRELYVMEISDNPGVHEPGEPEFKYIGNMHGNEVVGRELLLNLIEYLCKNFGTDPEVTDLVHNTRIHLMPSMNPDGYEKSQEGDSISVIGRNNSNNFDLNRNFPDQFVQITDPTQPETIAVMSWMKSYPFVLSANLHGGSLVVNYPFDDDEQGLATYSKSPDDAVFQQIALSYSKENSQMFQGRPCKNMYPNEYFPHGITNGASWYNVPGGMQDWNYLQTNCFEVTIELGCVKYPLEKELPNFWEQNRRSLIQFMKQVHQGVRGFVLDATDGRGILNATISVAEINHPVTTYKTGDYWRLLVPGTYKITASARGYNPVTKNVTVKSEGAIQVNFTLVRSSTDSNNESKKGKGASSSTNDASDPTTKEFETLIKDLSAENGLESLMLRSSSNLALALYRYHSYKDLSEFLRGLVMNYPHITNLTNLGQSTEYRHIWSLEISNKPNVSEPEEPKIRFVAGIHGNAPVGTELLLALAEFLCLNYKKNPAVTQLVDRTRIVIVPSLNPDGRERAQEKDCTSKIGQTNARGKDLDTDFTNNASQPETKAIIENLIQKQDFSLSVALDGGSMLVTYPYDKPVQTVENKETLKHLASLYANNHPSMHMGQPSCPNKSDENIPGGVMRGAEWHSHLGSMKDYSVTYGHCPEITVYTSCCYFPSAARLPSLWADNKRSLLSMLVEVHKGVHGFVKDKTGKPISKAVIVLNEGIKVQTKEGGYFHVLLAPGVHNIIAIADGYQQQHSQVFVHHDAASSVVIVFDTDNRIFGLPRELVVTVSGATMSALILTACIIWCICSIKSNRHKDGFHRLRQHHDEYEDEIRMMSTGSKKSLLSHEFQDETDTEEETLYSSKH
binding [1]: binds
binding [3]: binds

B5: SNX30, endogenous in 293T cells (protein, UniProt Q5VWJ9 1-437)
chain: MAGGPPKALPSTGPHSLRDMPHPLAGSSSEEAVGGDSTPSPDLLMARSFGDKDLILPNGGTPAGTSSPASSSSLLNRLQLDDDIDGETRDLFVIVDDPKKHVCTMETYITYRITTKSTRVEFDLPEYSVRRRYQDFDWLRSKLEESQPTHLIPPLPEKFVVKGVVDRFSEEFVETRRKALDKFLKRITDHPVLSFNEHFNIFLTAKDLNAYKKQGIALLTRMGESVKHVTGGYKLRTRPLEFAAIGDYLDTFALKLGTIDRIAQRIIKEEIEYLVELREYGPVYSTWSALEGELAEPLEGVSACIGNCSTALEELTDDMTEDFLPVLREYILYSDSMKSVLKKRDQVQAEYEAKLEAVALRKEDRPKVPADVEKCQDRMECFNADLKADMERWQNNKRQDFRQLLMGMADKNIQYYEKCLMAWESIIPLLQEKQEAK
binding [2]: binds

B6: Hook3, endogenous in 293T cells (protein, UniProt Q86VS8 1-718)
chain: MFSVESLERAELCESLLTWIQTFNVDAPCQTVEDLTNGVVMAQVLQKIDPAYFDENWLNRIKTEVGDNWRLKISNLKKILKGILDYNHEILGQQINDFTLPDVNLIGEHSDAAELGRMLQLILGCAVNCEQKQEYIQAIMMMEESVQHVVMTAIQELMSKESPVSAGNDAYVDLDRQLKKTTEELNEALSAKEEIAQRCHELDMQVAALQEEKSSLLAENQVLMERLNQSDSIEDPNSPAGRRHLQLQTQLEQLQEETFRLEAAKDDYRIRCEELEKEISELRQQNDELTTLADEAQSLKDEIDVLRHSSDKVSKLEGQVESYKKKLEDLGDLRRQVKLLEEKNTMYMQNTVSLEEELRKANAARSQLETYKRQVVELQNRLSEESKKADKLDFEYKRLKEKVDSLQKEKDRLRTERDSLKETIEELRCVQAQEGQLTTQGLMPLGSQESSDSLAAEIVTPEIREKLIRLQHENKMLKLNQEGSDNEKIALLQSLLDDANLRKNELETENRLVNQRLLEVQSQVEELQKSLQDQGSKAEDSVLLKKKLEEHLEKLHEANNELQKKRAIIEDLEPRFNNSSLKIEELQEALRKKEEEMKQMEERYKKYLEKAKSVIRTLDPKQNQGAAPEIQALKNQLQERDRLFHSLEKEYEKTKSQREMEEKYIVSAWYNMGMTLHKKAAEDRLASTGSGQSFLARQRQATSSRRSYPGHVQPATAR
binding [1]: binds
binding [2]: binds
binding [3]: binds
